Measured values: paper PMC9875507
For at least one entry, the source does not settle the construct or the ends of the probe. For part of these data: A negative result means that nothing was seen under these conditions. A weaker result is weaker than the reference pair of the same experiment. For part of these data: At least one verdict was read from the data and is not stated in words by the source.

By UniProt entry, the sequences of proteins in these tests, tags left out. Residues count along the entry.
UniProt P26367, 1-269: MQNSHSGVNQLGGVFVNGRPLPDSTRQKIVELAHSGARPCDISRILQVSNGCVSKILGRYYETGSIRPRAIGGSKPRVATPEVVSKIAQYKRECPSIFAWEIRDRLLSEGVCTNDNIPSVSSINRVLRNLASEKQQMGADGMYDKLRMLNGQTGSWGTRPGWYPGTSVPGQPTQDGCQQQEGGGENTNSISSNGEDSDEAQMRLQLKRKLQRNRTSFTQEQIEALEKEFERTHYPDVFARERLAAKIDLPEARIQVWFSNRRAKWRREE

Legend:
Pax6 PD(5a)/HD = experiment: EMSA; conditions: not stated, autoradiography 6 h (PD/HD) and 16 h (PD(5a)/HD), protein details: GST, label: radiolabel (autoradiography)
Pax6 PD/HD = Pax6 PD/HD (UniProt P26367); experiment: EMSA; conditions: not stated, autoradiography 6 h (PD/HD) and 16 h (PD(5a)/HD), recombinant protein, protein details: GST, label: radiolabel (autoradiography)

GAAAACGAGTATTCACGCATCACAAAACAAAGAGCT (double strand) [motif 1-1 methylated CpG]
binding result (Pax6 PD(5a)/HD; symmetric 5mC at the single CpG of the site (probably C16 of top strand; exact position only in Fig 13A), recombinant protein): binds | binding result (Pax6 PD/HD; symmetric 5mC at the single CpG of the site (probably C16 of top strand; exact position only in Fig 13A)): binds

GAAAACGAGTATTCACGCATCACAAAACAAAGAGCT (double strand) [motif 1-1 unmethylated]
binding result (Pax6 PD(5a)/HD; recombinant protein): binds | binding result (Pax6 PD/HD): binds

TTCAGGAAAATTTCCGCATGAATGGCGCAGCTCGAGT (double strand) [motif 3-3 both CpGs methylated]
binding result (Pax6 PD(5a)/HD; reduced vs downstream mono-methylated, symmetric 5mC at both CpGs (probably C15 and C26 of top strand; marked in Fig 14A), recombinant protein): binds more weakly | binding result (Pax6 PD/HD; reduced vs downstream mono-methylated, symmetric 5mC at both CpGs (probably C15 and C26 of top strand; marked in Fig 14A)): binds more weakly

TTCAGGAAAATTTCCGCATGAATGGCGCAGCTCGAGT (double strand) [motif 3-3 downstream CpG methylated]
binding result (Pax6 PD(5a)/HD; symmetric 5mC at downstream CpG (probably C26 of top strand; marked in Fig 14A), recombinant protein): binds | binding result (Pax6 PD/HD; very modest positive effect vs unmethylated, symmetric 5mC at downstream CpG (probably C26 of top strand; marked in Fig 14A)): binds

TTCAGGAAAATTTCCGCATGAATGGCGCAGCTCGAGT (double strand) [motif 3-3 unmethylated]
binding result (Pax6 PD(5a)/HD; recombinant protein): no binding | binding result (Pax6 PD/HD): binds

TTCAGGAAAATTTCCGCATGAATGGCGCAGCTCGAGT (double strand) [motif 3-3 upstream CpG methylated]
binding result (Pax6 PD(5a)/HD; symmetric 5mC at upstream CpG (probably C15 of top strand; marked in Fig 14A), recombinant …): no binding | binding result (Pax6 PD/HD; slightly increased vs unmethylated, symmetric 5mC at upstream CpG (probably C15 of top strand; marked in Fig 14A)): binds
